PubChem BioAssay AID652272, Drosophila RNAi Screening Center – 2013
The screen tested about 21,000 reagents; below is an unselected part of those that have a named target and a result. Over the whole deposit, 503 (2.4%) were called active. 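Raw plate light values, not normalised; calls rest on replicate z-scores that were not deposited; hits include reporter decreases as well as increases.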 Reagents against one gene are numbered here. Not stated in the record: the amount of reagent, the time to read-out.

Test: 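Genome-wide knock-down search for components of Hedgehog signalling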 (primary screen)
Cell system: Drosophila clone 8 (Cl8) cells
Reagent: long dsRNA against Drosophila genes
Read-out: 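Plate reader light from a firefly reporter under a ptc promoter fragment that responds to Hedgehog, with Renilla light as transfection reference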
Scale: firefly Hh reporter signal: higher = more ptc reporter light; Renilla reference signal: higher = more Renilla control light
Active means: 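Called a hit if the two-replicate mean z-score lies below -2 or above +3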
Calls: active = hit: reporter lowered or raised; inactive = not a hit

no.	predicted target	reagent	firefly Hh reporter signal, replicate 1	firefly Hh reporter signal, replicate 2	firefly Hh reporter signal, replicate 3	Renilla reference signal, replicate 1	Renilla reference signal, replicate 2	Outcome
1	CG12071	1	40992	35996		1341	1899	inactive
2	CG43052	1	1.78e5	63347		4472	6050	inactive
3	CG7239	1	63553	37296		2937	2040	inactive
4	Wdr33	1	1.12e5	67936		5797	3824	inactive
5	Lcp9	1	95433	55178		2400	4109	inactive
6	Rab30	1	1.60e5	83243		3984	7763	inactive
7	CG11594	1	1.10e5	76976		4872	3073	inactive
8	Mesh1	1	74724	98048		2263	2796	inactive
9	CCT4	1	94820	48979		2989	5672	inactive
10	Rchy1	1	52889	23764		1072	3045	inactive
11	CG14187	1	81472	1.14e5		1911	2960	inactive
12	fs(1)h	1	1.66e5	5.99e5	1.07e5	3689	38676	inactive
13	CG18596	1	1.27e5	88068		5688	3639	inactive
14	Or67b	1	48085	50896	69861	4544	4253	inactive
15	Prp3	1	58849	55440		2891	2280	active
16	CG7079	1	5.37e5	94634		27896	3120	inactive
17	CG32187	1	93360			5771	2779	inactive
18	Zir	1	1.36e5	1.03e5		5400	3773	inactive
19	CG30467	1	92564	37268		2364	929	inactive
20	CG14937	1	1.06e5	47928		2668	3542	inactive
21	CG31140	1	55952	3.25e5		13733	6548	inactive
22	CG31140	2	1.04e5	90931		4109	3744	inactive
23	CG31140	3	6.53e5	1.09e5		33045	3435	inactive
